From patent US20150098947A1 (RESEARCH DEVELOPMENT FOUNDATION, published 2015)
Results are given in words; binding and its absence hold for the method and conditions named. Some entries that bind do so weakly or less than the wild type. For part of these data: Sequences can lack the tags named with a protein.

T1: human Olfml3-FLAG (human, UniProt Q9NRN5 22-406, limits assumed)
T1 construct: Screening antigen of the hybridoma ELISA; the tag is written last only by convention; not shown: FLAG tag
T1 sequence (looked up): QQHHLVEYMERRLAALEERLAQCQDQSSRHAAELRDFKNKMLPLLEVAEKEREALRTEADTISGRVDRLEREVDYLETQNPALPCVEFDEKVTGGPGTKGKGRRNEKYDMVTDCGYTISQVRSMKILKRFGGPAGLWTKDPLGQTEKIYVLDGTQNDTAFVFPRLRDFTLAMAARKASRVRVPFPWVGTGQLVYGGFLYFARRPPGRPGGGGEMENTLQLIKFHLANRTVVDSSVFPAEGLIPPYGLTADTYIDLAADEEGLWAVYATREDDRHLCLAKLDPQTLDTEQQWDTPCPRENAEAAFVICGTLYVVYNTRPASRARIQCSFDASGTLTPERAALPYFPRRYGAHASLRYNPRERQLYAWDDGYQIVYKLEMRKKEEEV

T2: recombinant soluble Olfml-3 protein (UniProt Q9NRN5)
T2 sequence (looked up): T1 sequence (looked up)

B1: 9F8BO monoclonal antibody (antibody, IgG2b, V domains shown)
VH: QVQLKESGPGLVQPSQTLSLTCTVSGFSLTRNNVHWVRQPPGKGLEWMGRMRYNGDTSYNSALKSRLSISRDTSKNQVFLKMNSLQIDDTGTYYCSREGYYDGTYYPDYWGQGVMVTVSS
VL: TSYELIQPPSASVTLENTVSITCSGDELSNKYAHWYQQKPDKTILEVMYKDSERPSGISDRFSGSSSGTTAILTIRDAQAEDEADYYCLSTYSDDDLPVFGGGTKLTVL
B2: 46A9BO monoclonal antibody (glycosylated) (antibody, IgG2b, V domains shown)
VH: AVHLVESGGGLVQPKESLKISCAASGFTFSNAAMYWVRQAPGKGLEWVARIRTKPNDYATYYVDSVKGRFTISRDDSQSMVYLQMDNLKTEDTAMYYCTAFTEPDYWGQGVMVTVSS
VL: LIQPPSASVTLGSTVSLTCVGDELSKTYAHWYQQKPDKTIVSVIYKDSERPSGISDRFSGSSSGTTATLTIHGTLAEDEADYYCLSTYSDDNLPVFGGGTKLTVL
notes: also called mAb 2; anti-Olfml-3B
B3: deglycosylated 46A9BO antibody (antibody, V domains shown)
VH: B2 VH
VL: B2 VL
notes: Same rat IgG2b antibody as 46A9BO after deglycosylation; also called 46A9BO (deglycosylated)

Legend:
human Olfml3-FLAG = biological target: T1, human Olfml3-FLAG; test: hybridoma screening ELISA
Method: The inventors produced a panel of monoclonal antibodies against a recombinant Olfml-3 protein. Three antibodies against human Olfml3 were generated using standard techniques by injecting simultaneously two 14-aa long peptides comprising epitopes in the coiled-coil (peptide A, 86-99 aa: […]; SEQ ID NO: 5) and the olfactomedin-like domains (peptide B, 390-403 aa: […]; SEQ ID NO: 6) as immunogens in rats (Aurrand-Lions et al., 1996). Briefly, human Olfml3 peptides A and B coupled to 100 μg KLH carrier protein (keyhole limpet hemocyanin, Pierce) and mixed with adjuvant 56322 (Sigma), were used to immunize female Wister rats. In total, three injections were performed every 9 days. Two days after a final s.c. injection of human Olfml3 peptides, blasts from draining lymph nodes were fused to Sp2/0 cells, and hybridomas were selected in HAT-containing medium (Life Technologies). Growing clones were screened by ELISA for the production of monoclonal antibodies recognizing specifically human Olfml3-FLAG. Positive clones were subcloned, rescreened, and further tested. Antibodies were purified on protein G-Sepharose columns (GE HealthCare) according to the manufacturer instructions. Two Olfml3-binding antibodies, 46A9BO and 9F8BO, are of IgG2b isotype subclass and one, Z14A7, is of IgG2c isotype subclass. The 46A9BO and 9F8BO monoclonal antibodies were used for in vivo tumor graft models.

[1] = biological target: T2, recombinant soluble Olfml-3 protein; test: ELISA

Row | Binder | binding (human Olfml3-FLAG) | binding [1]
1 | B1 | binds | –
2 | B2 | – | binds
3 | B3 | – | binds
